In publication PMC12172621 (ACS chemical neuroscience, 2024):

Experiment: in vitro
Details: mouse

Question: Which CC50 does the source give for CCCCc1oc2ccccc2c1C(=O)c1cc(I)c(OCCN(CC)CC)c(I)c1 [amiodarone] here?
Answer: The CC50 was 6.3 µM.
